Experimental data: publication PMC7027236
No constants are given. Whether binding was seen depends on the method and setting. Binding seen in cells or lysates may run through a third protein. Some entries that bind do so weakly or less than the wild type.

Chains of the proteins cited; added tags and fusions are not shown.
UniProt P46938: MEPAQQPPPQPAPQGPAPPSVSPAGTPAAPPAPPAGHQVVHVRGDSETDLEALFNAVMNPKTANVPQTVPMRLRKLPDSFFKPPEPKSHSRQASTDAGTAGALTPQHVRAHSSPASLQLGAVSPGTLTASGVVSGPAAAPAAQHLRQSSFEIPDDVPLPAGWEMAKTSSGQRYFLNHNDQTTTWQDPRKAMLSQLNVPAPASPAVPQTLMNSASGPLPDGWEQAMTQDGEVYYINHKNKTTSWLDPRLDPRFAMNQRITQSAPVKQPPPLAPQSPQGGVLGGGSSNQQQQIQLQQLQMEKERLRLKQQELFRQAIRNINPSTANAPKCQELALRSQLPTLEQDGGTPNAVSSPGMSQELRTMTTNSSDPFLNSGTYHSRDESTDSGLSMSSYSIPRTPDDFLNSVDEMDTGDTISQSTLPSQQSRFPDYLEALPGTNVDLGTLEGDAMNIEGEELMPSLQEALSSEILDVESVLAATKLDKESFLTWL
UniProt P30051: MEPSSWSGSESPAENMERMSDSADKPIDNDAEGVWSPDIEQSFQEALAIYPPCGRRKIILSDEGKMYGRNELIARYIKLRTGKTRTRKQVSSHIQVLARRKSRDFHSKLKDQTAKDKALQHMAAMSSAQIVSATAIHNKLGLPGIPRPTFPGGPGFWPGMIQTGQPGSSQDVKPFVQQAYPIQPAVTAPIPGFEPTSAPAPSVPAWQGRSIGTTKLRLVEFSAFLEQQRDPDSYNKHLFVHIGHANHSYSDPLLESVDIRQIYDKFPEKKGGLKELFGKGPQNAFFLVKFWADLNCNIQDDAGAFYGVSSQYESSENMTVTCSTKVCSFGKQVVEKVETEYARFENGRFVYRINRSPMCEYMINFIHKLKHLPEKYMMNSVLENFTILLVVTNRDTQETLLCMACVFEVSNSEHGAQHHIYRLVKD

Molecular target: Yes-associated protein 1 (YAP1), mouse, endogenous in CAF cells (mouse (endogenous in CAF)) (UniProt P46938)
Assay: co-IP; lysate of mouse CAF cells; YAP1 or TEAD1 antibody overnight at 4 °C, protein A agarose magnetic beads, washed 3 times with lysis buffer; western blot with a YAP1 or TEAD1 antibody

**Q.** With “TEA domain transcription factor 1 (TEAD1), mouse, endogenous in CAF cells (from UniProt P30051 1-426)” as the substance, how does the binding read?
**A.** binds
